The record followed here is ChEMBL document CHEMBL4138122, “Azaphenothiazines - promising phenothiazine derivatives. An insight into nomenclature, synthesis, structure elucidation and biological properties” (Eur J Med Chem, 2017).

SMILES strings stand for the structures.

In the assay the test system is HepG2. Briefly: cells. The note with it: Homo sapiens, HepG2, 72 h.

In general, IC50 refers to the concentration needed to halve the response being measured. In turn, `COc1cccc2c1C(=O)c1c(O)c3c(c(O)c1C2=O)C[C@@](O)(C(=O)CO)C[C@@H]3O[C@H]1C[C@H](N)[C@H](O)[C@H](C)O1` [DOXORUBICIN] displayed an IC50 of 5 µM.
